Publication doi:10.1101/2021.04.26.441472
Results are given in words; binding and its absence hold for the method and conditions named. Binding seen in cells or lysates may run through a third protein. Some binding calls cover weakened binding; strength is not graded here.

The chains behind the UniProt entries cited, without tags or fusion partners.
UniProt Q01196: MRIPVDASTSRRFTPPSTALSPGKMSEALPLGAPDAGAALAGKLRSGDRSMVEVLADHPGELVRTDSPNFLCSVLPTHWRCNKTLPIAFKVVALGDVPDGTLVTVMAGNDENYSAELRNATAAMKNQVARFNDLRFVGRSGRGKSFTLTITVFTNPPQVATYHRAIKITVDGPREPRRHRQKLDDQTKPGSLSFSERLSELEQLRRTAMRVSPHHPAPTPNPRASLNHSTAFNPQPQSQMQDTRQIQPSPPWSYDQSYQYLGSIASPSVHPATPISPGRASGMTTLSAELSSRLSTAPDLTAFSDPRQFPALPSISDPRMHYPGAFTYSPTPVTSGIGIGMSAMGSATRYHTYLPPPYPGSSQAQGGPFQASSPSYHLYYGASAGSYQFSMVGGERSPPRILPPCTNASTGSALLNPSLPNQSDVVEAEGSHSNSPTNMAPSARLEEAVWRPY
UniProt P05412: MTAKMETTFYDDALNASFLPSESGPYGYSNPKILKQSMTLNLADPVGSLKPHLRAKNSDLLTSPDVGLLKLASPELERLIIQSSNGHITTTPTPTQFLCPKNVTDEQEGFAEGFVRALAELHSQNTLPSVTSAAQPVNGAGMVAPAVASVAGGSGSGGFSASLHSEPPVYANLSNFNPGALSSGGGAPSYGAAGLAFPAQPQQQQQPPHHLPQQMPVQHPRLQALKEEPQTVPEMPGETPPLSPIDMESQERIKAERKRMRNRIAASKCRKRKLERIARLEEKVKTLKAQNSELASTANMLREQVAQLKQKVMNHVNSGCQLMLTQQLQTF
UniProt P40763: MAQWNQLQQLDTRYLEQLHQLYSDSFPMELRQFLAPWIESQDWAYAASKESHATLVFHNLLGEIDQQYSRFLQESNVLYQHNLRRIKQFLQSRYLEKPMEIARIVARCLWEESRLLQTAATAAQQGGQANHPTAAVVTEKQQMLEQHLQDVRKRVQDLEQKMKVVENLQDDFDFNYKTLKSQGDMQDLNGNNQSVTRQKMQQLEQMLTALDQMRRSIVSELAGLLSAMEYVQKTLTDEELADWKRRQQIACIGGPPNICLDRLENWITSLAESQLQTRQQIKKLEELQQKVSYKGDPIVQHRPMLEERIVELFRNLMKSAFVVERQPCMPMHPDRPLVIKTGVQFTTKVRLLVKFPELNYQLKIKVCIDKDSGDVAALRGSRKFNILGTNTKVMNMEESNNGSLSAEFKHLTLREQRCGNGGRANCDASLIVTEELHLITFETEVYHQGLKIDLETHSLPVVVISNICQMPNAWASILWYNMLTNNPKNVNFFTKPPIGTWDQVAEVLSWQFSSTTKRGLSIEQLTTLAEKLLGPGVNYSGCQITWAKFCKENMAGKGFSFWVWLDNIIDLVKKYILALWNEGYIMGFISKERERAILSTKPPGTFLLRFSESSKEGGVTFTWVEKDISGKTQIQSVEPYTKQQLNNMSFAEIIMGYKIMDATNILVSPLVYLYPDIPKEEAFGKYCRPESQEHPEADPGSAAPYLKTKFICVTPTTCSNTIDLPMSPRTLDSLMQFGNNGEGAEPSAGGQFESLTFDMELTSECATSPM

Target: T1, BATF (human (endogenous in Th17 cells from cord blood CD4+ T cells)) (UniProt Q16520)
T1 sequence: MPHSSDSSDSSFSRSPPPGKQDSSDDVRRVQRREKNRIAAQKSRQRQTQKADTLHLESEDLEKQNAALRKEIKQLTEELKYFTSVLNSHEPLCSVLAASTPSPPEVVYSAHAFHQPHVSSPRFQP
Assay: co-IP

Molecule | binding
RUNX1 (from UniProt Q01196 1-453) | binds
JUN (from UniProt P05412 1-331) | binds
STAT3 (from UniProt P40763 1-770) | no binding
JUNB (protein, UniProt P17275 1-347) MCTKMEQPFYHDDSYTATGYGRAPGGLSLHDYKLLKPSLAVNLADPYRSLKAPGARGPGPEGGGGGSYFSGQGSDTGASLKLASSELERLIVPNSNGVITTTPTPPGQYFYPRGGGSGGGAGGAGGGVTEEQEGFADGFVKALDDLHKMNHVTPPNVSLGATGGPPAGPGGVYAGPEPPPVYTNLSSYSPASASSGGAGAAVGTGSSYPTTTISYLPHAPPFAGGHPAQLGLGRGASTFKEEPQTVPEARSRDATPPVSPINMEDQERIKVERKRLRNRLAATKCRKRKLERIARLEDKVKTLKAENAGLSSTAGLLREQVAQLKQKVMTHVSNGCQLLLGVKGHAF | binds
IRF4 (protein, UniProt Q15306 1-451) MNLEGGGRGGEFGMSAVSCGNGKLRQWLIDQIDSGKYPGLVWENEEKSIFRIPWKHAGKQDYNREEDAALFKAWALFKGKFREGIDKPDPPTWKTRLRCALNKSNDFEELVERSQLDISDPYKVYRIVPEGAKKGAKQLTLEDPQMSMSHPYTMTTPYPSLPAQQVHNYMMPPLDRSWRDYVPDQPHPEIPYQCPMTFGPRGHHWQGPACENGCQVTGTFYACAPPESQAPGVPTEPSIRSAEALAFSDCRLHICLYYREILVKELTTSSPEGCRISHGHTYDASNLDQVLFPYPEDNGQRKNIEKLLSHLERGVVLWMAPDGLYAKRLCQSRIYWDGPLALCNDRPNKLERDQTCKLFDTQQFLSELQAFAHHGRSLPRFQVTLCFGEEFPDPQRQRKLITAHVEPLLARQLYYFAQQNSGHFLRGYDLPEHISNPEDYHRSIRHSSIQE | no binding
